Experimental data: patent US7407645B2 (Metaphore Pharmaceuticals, Inc., priority 1995, dated 2008)

Assay: general procedure: solution-phase peptide synthesis; EDC.HCl / HOBt.H2O with TEA in DMF; DPPA for cyclisation
Details: TFA salt

Substance	step yield (late stage modification step) [%]	other results
Boc-Gly-Orn(Z)-Cyc(Ts)-Gly-Gly-OEt	–	step yield (coupling step): 87%
cyclo-(Gly-Orn(Lithocholyl)-Cyc(Ts)-Gly-Gly-)	–	step yield (lipidation step): 56%
Boc-Orn(Z)-Cyc(Ts)-Gly-Gly-OEt	–	step yield (coupling step): 87%
cyclo-(Gly-Orn(Z)-Cyc(Ts)-Gly-Gly-)	–	cyclisation yield (cyclisation step): 78%
Boc-Gly-Orn(Z)-Cyc(Ts)-Gly-Gly-OH	91	–
Gly-Orn(Z)-Cyc(Ts)-Gly-Gly-OH TFA salt	99	–
cyclo-(Gly-Orn-Cyc(Ts)-Gly-Gly-)	89	–
Orn(Z)-Cyc(Ts)-Gly-Gly-OEt TFA salt	>100	–
